# Laboratory results as given in PubChem BioAssay AID651640 (Broad Institute, 2012).
# Screen size: about 350,000 compounds; about 6,000 (1.7%) were called active. The shares of active, inactive and inconclusive entries below differ from those in the screen. Cut-off read from the data, not from the text of the source: active = CPE inhibition above about 20% (passing the limit was not always enough); inconclusive = no clear call, values can overlap the other calls; tested in BHK-21 cells.
# Assay: protection of cells from dengue 2 killing – plate reader, single concentration, primary screen (AID 651640);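 note: 0% = median of neutral control wells and 100% = median of positive control wells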
# Details: DENV2-infected cells, cytopathic effect rescue, at 9.99 µM, active compounds read high
row,SMILES,CPE inhibition
1,Cc1cccc(-c2cnc(C(O)c3ccc(-c4ccccc4)cc3)[nH]2)c1 (stereo not drawn),inconclusive: 31.6%
2,COc1ccc(C(CNC(=O)CCC(=O)c2ccc(C)s2)N2CCOCC2)cc1 (stereo not drawn),inconclusive: 39.2%
3,CCCNC(=O)C1(C)CCN1C(=O)Cc1ccc(-c2ccccc2)cc1 (stereo not drawn),inconclusive: 49.3%
4,CCCCn1c(N)c(N(CC)C(=O)c2ccccc2C)c(=O)[nH]c1=O,inconclusive: 38.4%
5,C[C@@H]1CN([C@@H](C)CO)S(=O)(=O)c2ccc(-c3ccccc3)cc2O[C@H]1CN(C)C(=O)c1ccc2c(c1)OCO2,inactive: 2.94%
6,C/C=C/c1cnc2c(c1)C(=O)N([C@@H](C)CO)C[C@H](C)[C@H](CN(C)Cc1cncnc1)O2,active: 37.2%
7,O=C(O)c1cccc(N2C(=O)c3cc([N+](=O)[O-])cc4cc([N+](=O)[O-])cc(c34)C2=O)c1,inactive: 2.95%
8,COc1ccc(S(=O)(=O)N(C)C[C@H]2OCCCC[C@@H](C)Oc3ccc(NS(=O)(=O)c4cccs4)cc3C(=O)N([C@@H](C)CO)C[C@H]2C)cc1,active: 22.8%
9,Cc1ccc(N(CC(=O)NCC2CCCO2)C(=O)CNS(=O)(=O)c2ccc(Cl)cc2)cc1 (stereo not drawn),inconclusive: 39.5%
10,CCNC(=O)[C@@H]1[C@@H](CO)[C@@H]2Cn3c(ccc(C4=CCCCC4)c3=O)[C@@H]2N1Cc1ccccc1F,inactive: 2.99%
11,O=C(CCN1C(=O)S/C(=C/c2ccccc2)C1=O)Nc1ccc(O)c(C(=O)O)c1,inconclusive: 21.3%
12,O=C(Cc1ccccc1)N1CC(=O)N2[C@H](CO)[C@@H](c3ccc(-c4cccc(F)c4)cc3)[C@@H]2C1,inactive: 16.1%
13,O=Cc1cccc(OCc2cccc3ccccc23)c1,inconclusive: 25.7%
14,O=C(CN1CCOCC1)N[C@@H]1CC[C@@H](CCNC(=O)Nc2cc(F)ccc2F)O[C@@H]1CO,inactive: 3.55%
15,COc1cccc(-c2ccc([C@H]3[C@H](CO)N4C(=O)CN(C(=O)C5CC5)C[C@@H]34)cc2)c1,active: 29.4%
16,C[C@@H]1CCCCO[C@@H](CN(C)C(=O)Nc2ccc(C(F)(F)F)cc2)[C@@H](C)CN([C@@H](C)CO)C(=O)c2cc(NC(=O)C3CCCCC3)ccc2O1,inactive: -8.23%
17,C[C@H](CO)N1C[C@H](C)[C@@H](CN(C)Cc2ccc(Cl)c(Cl)c2)Oc2ccc(NC(=O)C3CCCCC3)cc2CC1=O,inconclusive: 37.6%
18,COc1ccc(S(=O)(=O)N(C)C[C@H]2OCCCC[C@H](C)Oc3ccc(NS(=O)(=O)c4c(C)noc4C)cc3C(=O)N([C@@H](C)CO)C[C@@H]2C)cc1,inactive: -3.17%
19,C[C@@H]1CN([C@H](C)CO)C(=O)Cc2cc(NC(=O)Nc3ccc(C(F)(F)F)cc3)ccc2O[C@H]1CN(C)S(=O)(=O)c1cccs1,inactive: 13.3%
20,COc1ccccc1-c1ccc([C@@H]2[C@@H](CO)N(C(=O)C3CC3)C23CN(C(C)=O)C3)cc1,active: 79%
21,Nc1c(NC(=O)CC[n+]2ccccc2)cccc1[N+](=O)[O-],inconclusive: 26.8%
22,Cc1cc(NC(=O)CSc2ncccn2)no1,inconclusive: 24.1%
23,CN1CCCCN2[C@H](CO)[C@H](c3ccc(-c4ccc(F)cc4)cc3)[C@@H]2C1,inconclusive: 36.5%

# Quoted from the entries so far, two compounds:
row,SMILES,CPE inhibition
7,O=C(O)c1cccc(N2C(=O)c3cc([N+](=O)[O-])cc4cc([N+](=O)[O-])cc(c34)C2=O)c1,inactive: 2.95%
8,COc1ccc(S(=O)(=O)N(C)C[C@H]2OCCCC[C@@H](C)Oc3ccc(NS(=O)(=O)c4cccs4)cc3C(=O)N([C@@H](C)CO)C[C@H]2C)cc1,active: 22.8%

# Continuation:

row,SMILES,CPE inhibition
1,Cc1ccc(-n2nc3c(N4CCC(C(=O)NCCc5ccco5)CC4)nnc(C)c3c2C)cc1,inconclusive: 21.9%
2,C[C@@H]1CN([C@@H](C)CO)C(=O)c2cc(NC(=O)Nc3ccccc3)ccc2O[C@H]1CN(C)Cc1ccc(C(F)(F)F)cc1,active: 21.4%
3,Cc1ccc(S(=O)(=O)Nc2ccc3c(c2)C(=O)N([C@@H](C)CO)C[C@@H](C)[C@H](CN(C)S(=O)(=O)c2ccc(Cl)cc2)OCCCC[C@@H](C)O3)cc1,active: 83.1%
4,O=C(C[C@@H]1CC[C@H](NC(=O)c2cccnc2)[C@H](CO)O1)NCCN1CCCCC1,inactive: 2.47%
5,Cc1noc(C)c1NC(=O)N(C)C[C@@H]1OCCCC[C@@H](C)Oc2ccc(NS(=O)(=O)c3ccccc3)cc2C(=O)N([C@@H](C)CO)C[C@H]1C,inactive: 1.14%
6,CNC[C@@H]1OCCCC[C@H](C)Oc2ccc(NS(=O)(=O)c3ccc(C)cc3)cc2C(=O)N([C@@H](C)CO)C[C@@H]1C,inconclusive: 20.2%
7,Cc1ccc(S(=O)(=O)Nc2ccc3c(c2)C(=O)N([C@H](C)CO)C[C@@H](C)[C@@H](CN(C)S(=O)(=O)c2ccc(C)cc2)O3)cc1,inactive: 9.43%
8,NC(=O)c1ccc(NC(=O)Cn2c(=O)n(-c3ccccc3)c(=O)c3oc4ccccc4c32)cc1,inactive: 3.43%
9,CCC(C)[C@@H](C(=O)Nc1ccc(OC)c(OC)c1)N1Cc2ccccc2C1=O (stereo partly drawn),inconclusive: 48.7%
10,Cc1ccc(CSC(Nc2ccc(F)cc2)=C(C#N)C#N)cc1,inactive: 0.385%
11,O=C(NC1CCCC1)N[C@H]1CC[C@H](CC(=O)N2CCOCC2)O[C@@H]1CO,inactive: 2.04%
12,CCCNC(=O)Nc1ccc2c(c1)C(=O)N(C)C[C@H](OC)[C@H](C)CN(Cc1ccc(-c3ccccn3)cc1)[C@H](C)CO2,inconclusive: 20.7%
13,Cc1cc2c(cc1S(=O)(=O)CCC(=O)N(C)C1CCCCC1)OCC(=O)N2,inconclusive: 22.5%
14,O=C(NCc1cc(F)cc(F)c1)[C@@H]1[C@@H](CO)[C@@H]2Cn3c(cccc3=O)[C@H]1N2,inconclusive: 26.8%
15,COCCCn1cnnc1SC(C)C(=O)Nc1ccc(S(=O)(=O)N2CCOCC2)cc1 (stereo not drawn),inconclusive: 22.3%
16,CO[C@H]1CN(C)C(=O)c2cc(NC(=O)Nc3ccc(Cl)cc3)ccc2OC[C@@H](C)N(C)C[C@@H]1C,inconclusive: 25.6%
17,CO[C@H]1CN(C)C(=O)c2cc(NC(=O)NC(C)C)ccc2OC[C@@H](C)N(Cc2ccccc2)C[C@H]1C,inactive: 0.89%
18,NCCCCCNC(=O)c1[nH]cnc1C(=O)N[C@@H](Cc1ccccc1)C(=O)OCc1ccccc1,inconclusive: 20.7%
19,CN[C@@H](CO)C(=O)NC[C@H]1O[C@@H](n2cnc3c(=O)[nH]c(N)nc32)[C@H](O)[C@@H]1O,inconclusive: 94.7%
20,C[C@H](O)C#Cc1cnc2c(c1)C(=O)N([C@@H](C)CO)C[C@H](C)[C@@H](CN(C)C(=O)c1ccccc1)O2,inconclusive: 65%
21,COc1cccc(C(=O)N2C[C@H]3[C@@H](c4ccccc42)[C@@H](CO)N3C(C)=O)c1,inconclusive: 31.7%
22,CN(C)CC#Cc1ccc([C@H]2[C@@H](CO)N3C(=O)CN(C(=O)c4ccc(F)cc4)C[C@H]23)cc1,inconclusive: 20.6%
23,CN1[C@@H]2CN(C(=O)C3CCOCC3)c3ccccc3[C@@H]2[C@@H]1CO,active: 39.6%

# Look-ups from above.
# CPE inhibition, Cc1ccc(S(=O)(=O)Nc2ccc3c(c2)C(=O)N([C@@H](C)CO)C[C@@H](C)[C@H](CN(C)S(=O)(=O)c2ccc(Cl)cc2)OCCCC[C@@H](C)O3)cc1 is entered as active: 83.1%
# CPE inhibition, O=C(O)c1cccc(N2C(=O)c3cc([N+](=O)[O-])cc4cc([N+](=O)[O-])cc(c34)C2=O)c1 is entered as inactive: 2.95%

# Next structures.

row,SMILES,CPE inhibition
1,Cc1cc(C)nc(N/N=C/C2=C(O)CC(c3ccccc3)CC2=O)n1 (stereo not drawn),active: 31.9%
2,Cc1cc2oc(=O)cc(CN3CCOCC3)c2c(C)c1Cl,inconclusive: 49.7%
3,O=S(=O)(Nc1ccc(-c2ccc3nncn3n2)cc1)c1ccccc1F,inactive: -6.21%
4,COc1ccc(CCNC(=O)c2cc(C3CC3)nc3c2cnn3C(C)C)cc1OC,inconclusive: 24.8%
5,Cc1noc(C)c1NC(=O)Nc1ccc2c(c1)C(=O)N([C@H](C)CO)C[C@H](C)[C@H](CN(C)C(=O)NC1CCCCC1)O2,inactive: 1.14%
6,COc1ccc(CC2(C)OC(c3ccc([N+](=O)[O-])cc3)=NN2C(C)=O)cc1 (stereo not drawn),inactive: -3.11%
7,CO[C@@H]1CN(C)C(=O)c2cc(NC(=O)CC(F)(F)F)ccc2OC[C@@H](C)N(CC2CC2)C[C@H]1C,inactive: 10.1%
8,O=C(CSc1n[nH]c(-c2cccs2)n1)N1CCCCC1,inconclusive: 36.1%
9,O=C(c1cc(-c2cccs2)nn1-c1ccccc1)N1CCN(S(=O)(=O)c2ccccc2)CC1,inconclusive: 22.6%
10,CCCCc1cc(=O)oc2cc(C)cc(OCC(=O)N3CCC(C(N)=O)CC3)c12,active: 61%
11,COCCN(C(=O)CSc1nnc(C)n1-c1ccc(C)cc1)c1c(N)n(Cc2ccccc2)c(=O)[nH]c1=O,inconclusive: 38.4%
12,COc1cccc(C(=O)Nc2ccc3c(c2)OC[C@H](C)NC[C@H](C)[C@@H](OC)CN(C)C3=O)c1,active: 25.3%
13,CCC(=O)N1C[C@@H](C)[C@@H](OC)CN(C)C(=O)c2cc(NC(=O)c3cnccn3)ccc2OC[C@@H]1C,inactive: 3.93%
14,COc1ccccc1/C=C/CN1CCCC(CCC(=O)NCc2ccc(F)c(F)c2)C1 (stereo not drawn),inconclusive: 25.8%
15,C[C@H](CO)N1C[C@H](C)[C@H](CN(C)S(=O)(=O)c2ccccc2)Oc2c(NC(=O)C3CC3)cccc2C1=O,inconclusive: 26.3%
16,COC(=O)[C@@]1(C(C)C)N=C(c2cc(OC)c(OC)c(OC)c2)[C@]2(O1)C(=O)N(C)c1ccccc12,inconclusive: 38.1%
17,COc1ccc(CNC(=O)[C@@H](C)NC(=O)C2CCN(C(=O)[C@@H](N)CCSC)CC2)cc1,inconclusive: 64.1%
18,C/C(=N\OCc1ccc(C#N)cc1)c1ccccc1,inactive: -0.138%
19,CC(C)c1ccc(OCC(=O)N(Cc2ccco2)C2CCS(=O)(=O)C2)cc1 (stereo not drawn),inconclusive: 37.1%
20,Cc1c(N2C(=O)C3C4C=CC(C5CC45)C3C2=O)c(=O)n(-c2ccccc2)n1C (stereo not drawn),inconclusive: 22.8%
21,Cc1ccc2ccc(C(Nc3ccccc3)c3ccc(C(C)C)cc3)c(O)c2n1 (stereo not drawn),inactive: -4.67%
22,C[C@@H]1CN([C@@H](C)CO)C(=O)c2cc(C3=CCCCC3)cnc2O[C@@H]1CN(C)C(=O)c1cccc(F)c1,inconclusive: 25.1%
